The supplement of paper PMC12819154, “High-throughput peptide-centric local stability assay extends protein–ligand identification to membrane proteins, tissues and bacteria” (Nature Structural & Molecular Biology, 2025)
Some of the results follow. Most values lie at the level of the controls, where differences are scatter.

By UniProt entry, the sequences of proteins in these tests, tags left out. Where a name states a change or a piece, a line headed by the entry shows the natural chain unless it says otherwise.
UniProt Q96IU4: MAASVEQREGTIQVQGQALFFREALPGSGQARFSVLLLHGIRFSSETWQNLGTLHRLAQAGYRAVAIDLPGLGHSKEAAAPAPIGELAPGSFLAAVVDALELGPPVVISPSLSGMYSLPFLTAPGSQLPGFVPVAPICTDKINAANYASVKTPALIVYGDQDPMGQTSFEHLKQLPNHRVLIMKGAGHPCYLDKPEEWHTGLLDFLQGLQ
UniProt Q96MG7: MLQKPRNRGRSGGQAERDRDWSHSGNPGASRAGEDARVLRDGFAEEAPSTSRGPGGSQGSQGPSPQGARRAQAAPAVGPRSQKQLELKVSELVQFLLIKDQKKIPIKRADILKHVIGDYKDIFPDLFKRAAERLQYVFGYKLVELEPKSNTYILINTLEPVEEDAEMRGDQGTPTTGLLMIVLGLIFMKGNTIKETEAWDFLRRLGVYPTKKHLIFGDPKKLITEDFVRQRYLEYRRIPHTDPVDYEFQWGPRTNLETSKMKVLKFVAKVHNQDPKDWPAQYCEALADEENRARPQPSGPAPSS
UniProt Q96MW1: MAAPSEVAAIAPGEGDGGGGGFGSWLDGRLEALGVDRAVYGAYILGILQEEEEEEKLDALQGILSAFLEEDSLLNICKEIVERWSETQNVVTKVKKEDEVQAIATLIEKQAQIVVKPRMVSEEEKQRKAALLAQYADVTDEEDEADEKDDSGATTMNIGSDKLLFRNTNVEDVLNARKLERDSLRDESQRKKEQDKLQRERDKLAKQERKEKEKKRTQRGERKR
UniProt Q96H20: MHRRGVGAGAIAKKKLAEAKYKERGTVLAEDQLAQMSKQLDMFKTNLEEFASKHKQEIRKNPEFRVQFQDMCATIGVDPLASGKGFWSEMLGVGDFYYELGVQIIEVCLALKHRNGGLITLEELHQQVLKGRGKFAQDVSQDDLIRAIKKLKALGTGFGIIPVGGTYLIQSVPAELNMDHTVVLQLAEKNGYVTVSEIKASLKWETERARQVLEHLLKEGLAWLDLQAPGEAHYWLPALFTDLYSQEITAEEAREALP
UniProt Q96HA7: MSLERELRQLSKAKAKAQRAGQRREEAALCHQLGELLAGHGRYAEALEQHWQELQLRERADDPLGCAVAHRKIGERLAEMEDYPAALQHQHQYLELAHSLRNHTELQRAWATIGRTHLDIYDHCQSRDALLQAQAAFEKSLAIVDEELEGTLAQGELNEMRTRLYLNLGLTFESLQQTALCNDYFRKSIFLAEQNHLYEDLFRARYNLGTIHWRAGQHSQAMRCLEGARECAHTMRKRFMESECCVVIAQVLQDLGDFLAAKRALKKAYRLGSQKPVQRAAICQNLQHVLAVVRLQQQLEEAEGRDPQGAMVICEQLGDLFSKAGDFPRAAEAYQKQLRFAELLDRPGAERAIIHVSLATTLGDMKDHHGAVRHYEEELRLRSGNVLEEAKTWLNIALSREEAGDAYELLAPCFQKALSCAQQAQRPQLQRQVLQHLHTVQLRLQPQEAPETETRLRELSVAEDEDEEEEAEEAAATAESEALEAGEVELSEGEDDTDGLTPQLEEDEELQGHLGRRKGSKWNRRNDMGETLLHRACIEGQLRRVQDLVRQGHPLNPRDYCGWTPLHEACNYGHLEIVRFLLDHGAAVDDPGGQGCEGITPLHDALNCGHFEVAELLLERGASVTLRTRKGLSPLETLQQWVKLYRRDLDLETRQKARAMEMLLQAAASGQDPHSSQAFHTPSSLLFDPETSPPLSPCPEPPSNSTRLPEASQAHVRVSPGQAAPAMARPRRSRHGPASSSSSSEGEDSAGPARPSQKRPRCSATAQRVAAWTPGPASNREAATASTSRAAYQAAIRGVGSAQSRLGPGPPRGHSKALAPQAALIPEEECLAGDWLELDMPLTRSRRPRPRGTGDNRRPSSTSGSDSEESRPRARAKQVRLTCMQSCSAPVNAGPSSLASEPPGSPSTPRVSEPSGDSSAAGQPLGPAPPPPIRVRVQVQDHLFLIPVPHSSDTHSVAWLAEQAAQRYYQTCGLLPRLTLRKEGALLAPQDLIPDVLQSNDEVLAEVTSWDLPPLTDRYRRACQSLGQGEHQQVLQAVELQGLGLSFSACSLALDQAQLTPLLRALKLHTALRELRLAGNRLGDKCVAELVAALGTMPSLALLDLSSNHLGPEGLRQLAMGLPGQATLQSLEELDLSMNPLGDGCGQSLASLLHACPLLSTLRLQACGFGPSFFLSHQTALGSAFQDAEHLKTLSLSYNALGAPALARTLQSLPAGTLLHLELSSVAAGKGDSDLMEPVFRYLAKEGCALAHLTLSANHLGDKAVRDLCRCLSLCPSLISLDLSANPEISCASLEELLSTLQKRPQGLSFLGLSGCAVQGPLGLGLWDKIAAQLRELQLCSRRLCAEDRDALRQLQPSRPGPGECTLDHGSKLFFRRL
UniProt Q96RS0: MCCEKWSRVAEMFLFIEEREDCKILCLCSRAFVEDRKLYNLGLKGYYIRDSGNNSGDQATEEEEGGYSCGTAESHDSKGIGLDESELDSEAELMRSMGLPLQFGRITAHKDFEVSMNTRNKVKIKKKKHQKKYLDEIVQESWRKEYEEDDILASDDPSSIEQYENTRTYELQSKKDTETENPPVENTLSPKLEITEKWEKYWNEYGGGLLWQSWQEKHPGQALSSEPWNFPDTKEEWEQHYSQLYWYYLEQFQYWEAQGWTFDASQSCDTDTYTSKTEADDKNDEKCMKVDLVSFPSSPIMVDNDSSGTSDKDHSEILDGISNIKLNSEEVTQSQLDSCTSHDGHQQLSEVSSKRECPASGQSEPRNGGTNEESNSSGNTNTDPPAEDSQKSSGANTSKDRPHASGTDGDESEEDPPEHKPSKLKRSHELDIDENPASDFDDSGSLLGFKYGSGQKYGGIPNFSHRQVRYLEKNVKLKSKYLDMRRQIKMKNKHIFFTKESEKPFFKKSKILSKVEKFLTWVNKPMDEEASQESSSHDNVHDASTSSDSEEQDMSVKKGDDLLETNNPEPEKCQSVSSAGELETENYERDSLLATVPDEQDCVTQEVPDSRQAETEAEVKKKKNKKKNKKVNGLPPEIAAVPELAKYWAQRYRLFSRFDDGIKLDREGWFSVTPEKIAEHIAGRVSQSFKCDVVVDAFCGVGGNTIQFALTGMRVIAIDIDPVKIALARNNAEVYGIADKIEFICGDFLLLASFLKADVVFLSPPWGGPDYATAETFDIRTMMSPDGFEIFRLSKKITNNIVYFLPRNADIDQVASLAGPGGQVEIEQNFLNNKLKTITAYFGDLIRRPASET
UniProt Q96PG8: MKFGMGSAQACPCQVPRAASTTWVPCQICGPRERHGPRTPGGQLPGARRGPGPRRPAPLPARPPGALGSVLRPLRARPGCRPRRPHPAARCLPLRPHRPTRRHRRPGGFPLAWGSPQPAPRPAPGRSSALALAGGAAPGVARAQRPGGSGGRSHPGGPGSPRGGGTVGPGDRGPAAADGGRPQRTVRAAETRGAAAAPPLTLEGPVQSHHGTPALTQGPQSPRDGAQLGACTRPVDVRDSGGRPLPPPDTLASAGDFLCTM
UniProt Q96HN2, whole entry: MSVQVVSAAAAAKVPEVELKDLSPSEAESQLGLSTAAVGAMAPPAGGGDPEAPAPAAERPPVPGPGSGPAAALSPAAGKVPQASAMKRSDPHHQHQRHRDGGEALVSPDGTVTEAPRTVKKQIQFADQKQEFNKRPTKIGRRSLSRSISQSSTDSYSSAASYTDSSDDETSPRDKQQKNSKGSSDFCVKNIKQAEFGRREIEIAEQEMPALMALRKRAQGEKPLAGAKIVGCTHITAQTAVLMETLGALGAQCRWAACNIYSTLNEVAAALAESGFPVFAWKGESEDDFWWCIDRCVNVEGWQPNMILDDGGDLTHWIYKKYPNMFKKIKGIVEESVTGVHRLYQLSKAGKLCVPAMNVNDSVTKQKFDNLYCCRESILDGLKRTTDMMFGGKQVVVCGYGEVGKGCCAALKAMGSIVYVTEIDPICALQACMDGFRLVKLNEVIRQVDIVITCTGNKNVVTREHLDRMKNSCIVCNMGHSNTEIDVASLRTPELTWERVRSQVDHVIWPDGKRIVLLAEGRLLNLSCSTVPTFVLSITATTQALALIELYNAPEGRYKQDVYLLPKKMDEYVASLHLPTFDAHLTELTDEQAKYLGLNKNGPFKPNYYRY
UniProt Q96NL8: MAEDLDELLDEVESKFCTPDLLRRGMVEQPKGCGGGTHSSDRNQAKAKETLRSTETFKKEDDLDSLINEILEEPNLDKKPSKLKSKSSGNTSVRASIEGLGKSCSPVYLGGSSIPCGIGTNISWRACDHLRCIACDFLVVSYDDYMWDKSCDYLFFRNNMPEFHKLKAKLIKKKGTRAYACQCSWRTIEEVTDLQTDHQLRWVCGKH
UniProt Q96IV0: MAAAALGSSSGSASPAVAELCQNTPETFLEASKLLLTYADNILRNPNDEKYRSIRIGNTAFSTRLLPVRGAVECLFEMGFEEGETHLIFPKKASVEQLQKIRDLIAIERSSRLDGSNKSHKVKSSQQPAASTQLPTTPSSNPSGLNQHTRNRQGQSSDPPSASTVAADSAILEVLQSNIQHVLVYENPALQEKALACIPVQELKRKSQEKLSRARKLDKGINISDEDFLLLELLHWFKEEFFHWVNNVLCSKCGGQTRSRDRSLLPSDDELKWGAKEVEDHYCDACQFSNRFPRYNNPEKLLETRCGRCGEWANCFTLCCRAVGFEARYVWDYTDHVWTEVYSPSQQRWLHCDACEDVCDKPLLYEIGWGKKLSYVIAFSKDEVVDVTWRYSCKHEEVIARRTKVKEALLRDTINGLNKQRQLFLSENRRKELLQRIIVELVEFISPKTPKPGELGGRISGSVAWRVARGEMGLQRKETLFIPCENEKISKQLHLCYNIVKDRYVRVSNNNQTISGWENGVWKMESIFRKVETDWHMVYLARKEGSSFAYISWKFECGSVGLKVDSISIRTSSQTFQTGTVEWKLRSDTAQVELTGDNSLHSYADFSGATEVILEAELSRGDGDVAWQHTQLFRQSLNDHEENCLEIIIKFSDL
UniProt Q96LD4: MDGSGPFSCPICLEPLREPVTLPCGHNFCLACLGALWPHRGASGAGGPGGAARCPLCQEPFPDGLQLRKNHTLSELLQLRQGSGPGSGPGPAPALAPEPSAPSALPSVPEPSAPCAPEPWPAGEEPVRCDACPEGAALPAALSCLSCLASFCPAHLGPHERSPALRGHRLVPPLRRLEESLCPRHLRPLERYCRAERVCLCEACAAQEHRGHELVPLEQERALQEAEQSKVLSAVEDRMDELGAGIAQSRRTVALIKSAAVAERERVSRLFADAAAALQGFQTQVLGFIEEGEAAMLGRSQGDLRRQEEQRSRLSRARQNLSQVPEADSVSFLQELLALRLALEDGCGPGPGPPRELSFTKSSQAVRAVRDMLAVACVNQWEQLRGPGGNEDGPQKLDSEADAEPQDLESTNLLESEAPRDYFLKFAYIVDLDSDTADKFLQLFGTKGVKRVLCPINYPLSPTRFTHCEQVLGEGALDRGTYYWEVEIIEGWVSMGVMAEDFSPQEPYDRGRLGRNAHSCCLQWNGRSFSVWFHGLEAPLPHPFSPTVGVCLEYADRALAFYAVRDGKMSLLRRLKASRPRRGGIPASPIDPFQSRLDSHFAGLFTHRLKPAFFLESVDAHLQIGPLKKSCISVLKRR
UniProt Q96S21: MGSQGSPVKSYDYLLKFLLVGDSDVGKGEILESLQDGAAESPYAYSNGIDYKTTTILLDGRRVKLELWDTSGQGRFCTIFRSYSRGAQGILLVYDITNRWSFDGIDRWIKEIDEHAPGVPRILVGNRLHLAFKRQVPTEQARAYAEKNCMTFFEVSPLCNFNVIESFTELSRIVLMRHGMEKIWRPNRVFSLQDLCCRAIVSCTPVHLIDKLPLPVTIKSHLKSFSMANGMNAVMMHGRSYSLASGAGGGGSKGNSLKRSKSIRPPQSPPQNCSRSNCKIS
UniProt Q96L94: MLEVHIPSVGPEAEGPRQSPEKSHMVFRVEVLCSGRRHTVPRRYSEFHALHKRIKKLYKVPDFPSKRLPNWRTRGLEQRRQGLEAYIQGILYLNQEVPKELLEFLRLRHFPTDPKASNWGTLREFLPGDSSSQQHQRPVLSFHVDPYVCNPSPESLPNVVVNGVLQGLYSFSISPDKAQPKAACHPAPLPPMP
UniProt Q96I76: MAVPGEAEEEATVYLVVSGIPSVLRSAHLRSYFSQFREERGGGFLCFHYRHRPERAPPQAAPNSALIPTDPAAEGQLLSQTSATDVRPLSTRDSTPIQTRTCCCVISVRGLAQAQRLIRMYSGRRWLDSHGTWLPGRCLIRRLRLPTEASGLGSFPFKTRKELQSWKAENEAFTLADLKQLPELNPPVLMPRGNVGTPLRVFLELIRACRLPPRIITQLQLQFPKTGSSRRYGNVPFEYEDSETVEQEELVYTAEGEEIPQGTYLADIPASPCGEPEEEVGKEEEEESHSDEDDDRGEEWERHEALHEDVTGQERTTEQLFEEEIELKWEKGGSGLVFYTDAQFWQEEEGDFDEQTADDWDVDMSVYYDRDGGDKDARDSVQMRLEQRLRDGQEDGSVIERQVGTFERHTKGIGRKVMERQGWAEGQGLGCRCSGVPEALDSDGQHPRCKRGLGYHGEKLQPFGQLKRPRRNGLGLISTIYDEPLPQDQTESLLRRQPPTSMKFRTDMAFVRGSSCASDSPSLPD

Compound: Cc1nc(Nc2ncc(C(=O)Nc3c(C)cccc3Cl)s2)cc(N2CCN(CCO)CC2)n1 [dasatinib]
Experiment: log2 fold change of tryptic peptide abundance, ligand vs vehicle (limited proteolysis) (log2 ratio); higher = more trypsin-susceptible (destabilized)
Conditions: ligand concentration: 5 uM; sample: K562 cleared lysate

| Target | log2 fold change |
| --- | --- |
| ABHD14B (peptide sequence: FSVLLLHGIR, peptide start residue: 33) (UniProt Q96IU4) | 1 |
| ZNF385A (peptide sequence: TFHCEICNVK, peptide start residue: 260) (UniProt Q96PM9) | -0.155 |
| MARS2 (peptide sequence: FSTGTDEHGLK, peptide start residue: 88) (UniProt Q96GW9) | -0.151 |
| UniProt Q96MG7 (peptide sequence: VLRDGFAEEAPSTSR, peptide start residue: 38) | -0.111 |
| CCDC43 (peptide sequence: EQDKLQR, peptide start residue: 193) (UniProt Q96MW1) | 0.272 |
| SNF8 (peptide sequence: GVGAGAIAKK, peptide start residue: 5) (UniProt Q96H20) | -0.31 |
| TONSL (peptide sequence: ELQLCSR, peptide start residue: 1336) (UniProt Q96HA7) | -0.214 |
| PYURF (peptide sequence: KQEEVEQR, peptide start residue: 107) (UniProt Q96I23) | -0.016 |
| TGS1 (peptide sequence: KLYNLGLK, peptide start residue: 37) (UniProt Q96RS0) | -0.0904 |
| UniProt Q96PG8 (peptide sequence: SHPGGPGSPR, peptide start residue: 153) | -0.167 |
| AHCYL2 (peptide sequence: RSDPHHQHQR, peptide start residue: 88) (UniProt Q96HN2) | -0.53 |
| C8orf37 (peptide sequence: FCTPDLLR, peptide start residue: 16) (UniProt Q96NL8) | 0.111 |
| ZC3H10 (peptide sequence: FIHGSKEDEDGYKK, peptide start residue: 94) (UniProt Q96K80) | -0.797 |
| NGLY1 (peptide sequence: ISGSVAWR, peptide start residue: 459) (UniProt Q96IV0) | -0.0808 |
| TRIM47 (peptide sequence: GHELVPLEQER, peptide start residue: 211) (UniProt Q96LD4) | -0.593 |
| RAB40C (peptide sequence: SIRPPQSPPQNCSR, peptide start residue: 262) (UniProt Q96S21) | 0.442 |
| MED15 (peptide sequence: QWQYDANPFLQSVHR, peptide start residue: 740) (UniProt Q96RN5) | -0.574 |
| INPP4A (peptide sequence: LNSYFEQFK, peptide start residue: 830) (UniProt Q96PE3) | -0.411 |
| UniProt Q96JY0 (peptide sequence: MVVLDAGR, peptide start residue: 338) | 0.096 |
| UniProt Q96L94 (peptide sequence: ASNWGTLR, peptide start residue: 116) | 0.869 |
| GPATCH3 (peptide sequence: CSGVPEALDSDGQHPR, peptide start residue: 433) (UniProt Q96I76) | 0.181 |

Single values from above:
log2 fold change, TRIM47 (peptide sequence: GHELVPLEQER, peptide start residue: 211) (UniProt Q96LD4) is entered as -0.593
log2 fold change, PYURF (peptide sequence: KQEEVEQR, peptide start residue: 107) (UniProt Q96I23) is entered as -0.016
